According to PMC8641947:
These are yes or no findings as the source states them, for the method shown. In cells and extracts the contact can be indirect. Some entries that bind do so weakly or less than the wild type. Sequences can lack the tags named with a protein. One block for each molecule: values may come before it.

Chains of the proteins cited; added tags and fusions are not shown. Lines headed by an entry give the natural chain unless they say otherwise; changes in a name come on top.
UniProt Q9NZI8: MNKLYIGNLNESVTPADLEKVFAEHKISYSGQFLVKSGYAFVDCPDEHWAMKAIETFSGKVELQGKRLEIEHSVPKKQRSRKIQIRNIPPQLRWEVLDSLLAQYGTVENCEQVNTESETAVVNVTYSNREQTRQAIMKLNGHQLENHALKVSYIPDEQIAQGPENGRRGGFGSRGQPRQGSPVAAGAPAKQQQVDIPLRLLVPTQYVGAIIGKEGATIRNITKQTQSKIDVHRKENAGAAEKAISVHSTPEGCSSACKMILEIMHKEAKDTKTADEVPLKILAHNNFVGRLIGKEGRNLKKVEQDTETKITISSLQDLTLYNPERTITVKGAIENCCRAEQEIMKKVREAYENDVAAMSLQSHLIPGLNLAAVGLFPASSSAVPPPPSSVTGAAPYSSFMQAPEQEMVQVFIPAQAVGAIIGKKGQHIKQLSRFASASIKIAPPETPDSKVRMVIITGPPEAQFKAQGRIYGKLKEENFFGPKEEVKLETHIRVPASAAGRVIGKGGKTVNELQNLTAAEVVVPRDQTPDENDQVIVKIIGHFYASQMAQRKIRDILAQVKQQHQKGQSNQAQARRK
UniProt P63208: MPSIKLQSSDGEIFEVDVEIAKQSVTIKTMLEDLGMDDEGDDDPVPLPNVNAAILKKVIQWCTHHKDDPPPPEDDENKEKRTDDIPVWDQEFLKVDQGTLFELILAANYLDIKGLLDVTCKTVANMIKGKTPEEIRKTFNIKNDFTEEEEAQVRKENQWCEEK

Columns and labels:
[1] = target: T1, Flag-FBXO45 ΔF (FBXO45 without F-box domain, amino acids 39-82 deleted, tagged with 3xFlag) (human) (UniProt P0C2W1); test: co-IP; HepG2 and HCCLM3 cells transfected with Flag-FBXO45 or Flag-FBXO45 ΔF for 48 hr (72 hr for SKP1/cullin-1); lysis in 20 mM Tris-HCl pH 8.0, 100 mM NaCl, 1% NP-40; anti-Flag antibody or normal IgG and Protein A/G PLUS-Agarose, 4 °C; Western blot
T1 sequence: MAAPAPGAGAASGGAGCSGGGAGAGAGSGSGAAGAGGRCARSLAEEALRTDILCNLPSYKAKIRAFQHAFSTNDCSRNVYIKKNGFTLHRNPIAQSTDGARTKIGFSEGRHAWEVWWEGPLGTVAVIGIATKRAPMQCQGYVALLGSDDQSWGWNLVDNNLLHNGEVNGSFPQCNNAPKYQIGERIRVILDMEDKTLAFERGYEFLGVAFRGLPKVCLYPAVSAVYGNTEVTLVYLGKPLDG

[2] = target: T2, Flag-FBXO45 (human F-box/SPRY domain-containing protein 1 tagged with 3xFlag) (human) (UniProt P0C2W1); test: as above
T2 sequence: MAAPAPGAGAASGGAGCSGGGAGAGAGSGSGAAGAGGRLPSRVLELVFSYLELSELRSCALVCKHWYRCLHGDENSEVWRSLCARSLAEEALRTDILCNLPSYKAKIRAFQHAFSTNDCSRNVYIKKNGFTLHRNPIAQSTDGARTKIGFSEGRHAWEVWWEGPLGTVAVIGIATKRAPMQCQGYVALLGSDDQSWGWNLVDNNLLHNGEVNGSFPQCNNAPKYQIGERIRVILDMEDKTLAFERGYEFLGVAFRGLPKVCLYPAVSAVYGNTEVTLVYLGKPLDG

[3] = target: Insulin-like growth factor 2 mRNA-binding protein 1 (IGF2BP1), endogenous (human (endogenous in HepG2 and HCCLM3)) (UniProt Q9NZI8); test: co-IP; HepG2 and HCCLM3 cells transfected with Flag-FBXO45 for 48 hr; lysis in 20 mM Tris-HCl pH 8.0, 100 mM NaCl, 1% NP-40; endogenous IGF2BP1 precipitated with antibody and Protein A/G PLUS-Agarose, 4 °C; Western blot for FBXO45

binding [1]: no binding
binding [2]: binds
Molecule: Insulin-like growth factor 2 mRNA-binding protein 1 (IGF2BP1), endogenous (from UniProt Q9NZI8-1 1-577)

binding [2]: binds
Molecule: SKP1 (from UniProt P63208 1-163)

binding [3]: binds
B1: Flag-FBXO45 (human F-box/SPRY domain-containing protein 1 tagged with 3xFlag) (protein, UniProt P0C2W1 1-286)
chain: T2 sequence
